The supplement of paper PMC12819154, “High-throughput peptide-centric local stability assay extends protein–ligand identification to membrane proteins, tissues and bacteria” (Nature Structural & Molecular Biology, 2025)
This is one part of the list. Most values lie at the level of the controls, where differences are scatter.

Protein sequences, listed by entry. Tags and fused reporters are not part of them. Lines headed by an entry give the natural chain unless they say otherwise; changes in a name come on top.
UniProt Q6P996: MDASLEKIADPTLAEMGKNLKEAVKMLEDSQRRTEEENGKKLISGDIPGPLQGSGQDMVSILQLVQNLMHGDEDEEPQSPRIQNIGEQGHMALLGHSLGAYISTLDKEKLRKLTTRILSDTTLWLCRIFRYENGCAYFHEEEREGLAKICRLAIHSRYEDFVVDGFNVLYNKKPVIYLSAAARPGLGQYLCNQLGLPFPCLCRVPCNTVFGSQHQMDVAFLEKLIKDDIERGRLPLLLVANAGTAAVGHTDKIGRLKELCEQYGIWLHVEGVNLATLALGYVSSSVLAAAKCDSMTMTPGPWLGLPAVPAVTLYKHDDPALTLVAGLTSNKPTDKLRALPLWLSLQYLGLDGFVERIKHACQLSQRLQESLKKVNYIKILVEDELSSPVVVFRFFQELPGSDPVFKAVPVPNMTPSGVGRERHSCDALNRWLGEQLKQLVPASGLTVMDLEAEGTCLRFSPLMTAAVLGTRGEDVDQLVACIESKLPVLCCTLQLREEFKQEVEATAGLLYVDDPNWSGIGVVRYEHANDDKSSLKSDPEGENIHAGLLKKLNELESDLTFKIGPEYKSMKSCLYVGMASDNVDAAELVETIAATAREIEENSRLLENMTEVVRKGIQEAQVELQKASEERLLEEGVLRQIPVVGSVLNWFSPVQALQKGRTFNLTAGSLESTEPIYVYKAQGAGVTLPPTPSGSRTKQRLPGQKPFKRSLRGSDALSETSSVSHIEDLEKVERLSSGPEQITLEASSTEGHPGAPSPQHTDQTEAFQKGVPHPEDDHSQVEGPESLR
UniProt Q6N043: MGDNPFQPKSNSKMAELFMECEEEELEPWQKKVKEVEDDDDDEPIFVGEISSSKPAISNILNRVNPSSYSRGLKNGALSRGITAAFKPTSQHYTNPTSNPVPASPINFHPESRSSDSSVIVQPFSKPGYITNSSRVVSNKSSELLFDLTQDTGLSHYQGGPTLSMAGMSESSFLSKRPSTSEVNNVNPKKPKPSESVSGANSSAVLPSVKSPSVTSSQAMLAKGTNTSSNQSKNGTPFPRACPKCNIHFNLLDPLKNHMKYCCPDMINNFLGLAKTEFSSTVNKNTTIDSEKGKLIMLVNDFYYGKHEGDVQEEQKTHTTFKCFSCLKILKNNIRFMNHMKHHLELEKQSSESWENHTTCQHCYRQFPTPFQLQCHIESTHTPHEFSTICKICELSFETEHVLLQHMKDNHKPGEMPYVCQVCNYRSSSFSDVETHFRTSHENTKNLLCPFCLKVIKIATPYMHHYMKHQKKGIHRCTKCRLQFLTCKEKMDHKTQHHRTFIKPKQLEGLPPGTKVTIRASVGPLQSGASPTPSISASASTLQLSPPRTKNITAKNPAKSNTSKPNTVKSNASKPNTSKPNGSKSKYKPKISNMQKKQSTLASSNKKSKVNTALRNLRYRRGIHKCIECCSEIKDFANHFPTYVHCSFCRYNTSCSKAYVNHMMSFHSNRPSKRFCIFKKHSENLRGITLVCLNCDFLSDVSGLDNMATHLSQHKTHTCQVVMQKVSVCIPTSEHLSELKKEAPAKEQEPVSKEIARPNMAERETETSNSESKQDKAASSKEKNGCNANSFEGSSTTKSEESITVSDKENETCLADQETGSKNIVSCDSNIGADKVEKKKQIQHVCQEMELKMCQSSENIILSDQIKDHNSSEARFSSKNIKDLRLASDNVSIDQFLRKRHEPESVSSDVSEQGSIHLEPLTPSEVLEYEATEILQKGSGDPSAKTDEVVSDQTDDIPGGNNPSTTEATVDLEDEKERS
UniProt Q6DKK2: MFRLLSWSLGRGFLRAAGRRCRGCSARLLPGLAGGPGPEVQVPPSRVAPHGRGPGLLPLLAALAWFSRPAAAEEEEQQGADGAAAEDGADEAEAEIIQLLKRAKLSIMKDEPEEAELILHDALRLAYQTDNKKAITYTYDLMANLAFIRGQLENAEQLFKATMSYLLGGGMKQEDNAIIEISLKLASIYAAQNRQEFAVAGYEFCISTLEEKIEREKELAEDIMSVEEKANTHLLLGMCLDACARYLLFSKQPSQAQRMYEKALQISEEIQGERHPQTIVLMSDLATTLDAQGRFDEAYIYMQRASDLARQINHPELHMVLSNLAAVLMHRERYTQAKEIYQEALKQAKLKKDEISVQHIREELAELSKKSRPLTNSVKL

Compound: Cc1nc(Nc2ncc(C(=O)Nc3c(C)cccc3Cl)s2)cc(N2CCN(CCO)CC2)n1 [dasatinib]
Assay: log2 fold change of tryptic peptide abundance, ligand vs vehicle (limited proteolysis) (log2 ratio); higher = more trypsin-susceptible (destabilized)
Details: ligand concentration: 5 uM; sample: K562 cleared lysate

| Target | log2 fold change |
| --- | --- |
| PDXDC1 (peptide sequence: GSDALSETSSVSHIEDLEK, peptide start residue: 713) (UniProt Q6P996) | 0.247 |
| ZNF280D (peptide sequence: SPSVTSSQAMLAK, peptide start residue: 211) (UniProt Q6N043) | 0.282 |
| TTC19 (peptide sequence: EIYQEALK, peptide start residue: 339) (UniProt Q6DKK2) | 0.266 |
